No constants are given. Whether binding was seen depends on the method and setting. Some results given as binding are weak or reduced against the parent protein; the word gives no strength. Each block holds one binder with its values, some of them ahead of it.
How the values were obtained:
[1] = biological target: LPAR1 (on CHO cells; species not stated) (UniProt Q92633); assay: hybridoma supernatant, FACS on CHO cells transiently expressing LPAR1 against CHO cells with an irrelevant GPCR (Example 1.2)
[2] = biological target: LPAR1 (on CHO cells; species not stated) (UniProt Q92633); assay: hybridoma isolation; assay not restated (Example 1.2 describes FACS on CHO cells expressing LPAR1)

By UniProt entry, the sequences of proteins in these tests, tags left out.
UniProt Q92633: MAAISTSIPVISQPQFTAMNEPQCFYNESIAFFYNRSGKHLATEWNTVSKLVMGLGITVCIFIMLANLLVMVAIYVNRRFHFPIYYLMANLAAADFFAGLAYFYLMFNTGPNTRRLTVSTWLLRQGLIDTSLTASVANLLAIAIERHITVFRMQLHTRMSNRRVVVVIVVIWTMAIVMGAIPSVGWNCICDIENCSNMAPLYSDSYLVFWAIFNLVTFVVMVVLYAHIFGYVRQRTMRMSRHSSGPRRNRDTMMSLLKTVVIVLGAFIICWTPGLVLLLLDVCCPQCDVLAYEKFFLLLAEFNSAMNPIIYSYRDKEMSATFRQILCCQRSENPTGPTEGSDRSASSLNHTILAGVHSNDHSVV

binding [1]: binds
B1: Antibody 1 (antibody, IgG1, V domains shown)
VH: QVQLQQSGAELARPGASVKLSCKASGYTFTSSGISWVKQRTGQGLEWIGEILPRSGYTNYNEKFKGKASLTADKSSSTAYMELRSLTSEDSAVYFCARDFGSSRYAMDYWSQGTSVTVSS
VL: SIVMTQTPKLLPVSAGDRVTMTCKASQSVRYNVAWYQQKPGQSPKLLIYYASNRYTGVPDRFTGSGSGTDFTFTVRSVQVEDLAVYFCQQHYNSPLTFGSGTKLELR

binding [2]: binds
B2: 63D8 (antibody, IgG1, V domains shown)
VH: EVKLLESGGGLVQPGGSLKLSCTASGFDFSRYWMSWVRQAPGKGLEWIGEINPSRSAINYSPSLKDKFIISRDNAKNTLYLQMSKVRSEDTALYYCARQGQRLRYGMDYWGQGTSVTVSS
VL: DIVMTQSPNFMSTSVGDRVSVTCRASQDVRTAVAWYQQKPGRSPKLLIYWTSTRHTGVPDRFTGSGSGTDYTLTISSVQAADLALYYCQQHYGTPLTFGAGTNLELK
notes: First found as a mouse hybridoma antibody

Source: patent publication US20230181671A1 (published 2023)
